± gives the standard deviation of the averaged measurements. The effect of the compound repeats well; differences between the knockouts mostly do not.
System: ZR-75-1
Assay: relative cell number vs DMSO control (72 h) (% of DMSO); higher = less growth inhibition (more cells)
Procedure: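 QMAP-Seq: a pool of 5 breast cancer cell lines (ZR-75-1, SKBR3, HCC-38, MDA-MB-231, BT-20), each carrying 12 doxycycline-inducible Cas9 sgRNA perturbations (11 knockouts plus non-targeting sgNT), was treated with compounds for 72 h at four 10-fold doses (10 nM-10 uM or 1 nM-1 uM range). Barcodes were amplified and sequenced, and cell number was interpolated from 293T spike-in standard curves. The result is expressed as % of the median of DMSO wells. Two biological replicates.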

[1] = sgRNA knockout: sgATF3, 1000 nM
[2] = sgRNA knockout: sgATF3, 10000 nM
[3] = sgRNA knockout: sgATF4, 1000 nM
[4] = sgRNA knockout: sgATF4, 10000 nM
[5] = sgRNA knockout: sgATF6, 1000 nM
[6] = sgRNA knockout: sgATF6, 10000 nM
[7] = sgRNA knockout: sgATG7, 1000 nM
[8] = sgRNA knockout: sgATG7, 10000 nM
[9] = sgRNA knockout: sgERN1, 1000 nM
[10] = sgRNA knockout: sgERN1, 10000 nM
[11] = sgRNA knockout: sgHSF2, 1000 nM
[12] = sgRNA knockout: sgHSF2, 10000 nM
[13] = sgRNA knockout: sgNFE2L2, 10 nM
[14] = sgRNA knockout: sgNFE2L2, 100 nM
[15] = sgRNA knockout: sgNFE2L2, 1000 nM
[16] = sgRNA knockout: sgNFE2L2, 10000 nM
[17] = sgRNA knockout: sgSLC35F2, 10 nM
[18] = sgRNA knockout: sgSLC35F2, 100 nM
[19] = sgRNA knockout: sgSLC35F2, 1000 nM
[20] = sgRNA knockout: sgSLC35F2, 10000 nM
[21] = sgRNA knockout: sgXBP1, 1000 nM
[22] = sgRNA knockout: sgXBP1, 10000 nM

| SMILES | relative cell number (sgRNA knockout: sgATF3, 10 nM) | relative cell number (sgRNA knockout: sgATF3, 100 nM) | relative cell number [1] | relative cell number [2] | relative cell number (sgRNA knockout: sgATF4, 10 nM) | relative cell number (sgRNA knockout: sgATF4, 100 nM) | relative cell number [3] | relative cell number [4] | relative cell number (sgRNA knockout: sgATF6, 10 nM) | relative cell number (sgRNA knockout: sgATF6, 100 nM) | relative cell number [5] | relative cell number [6] | relative cell number (sgRNA knockout: sgATG7, 10 nM) | relative cell number (sgRNA knockout: sgATG7, 100 nM) | relative cell number [7] | relative cell number [8] | relative cell number (sgRNA knockout: sgERN1, 10 nM) | relative cell number (sgRNA knockout: sgERN1, 100 nM) | relative cell number [9] | relative cell number [10] | relative cell number (sgRNA knockout: sgHSF2, 10 nM) | relative cell number (sgRNA knockout: sgHSF2, 100 nM) | relative cell number [11] | relative cell number [12] | relative cell number [13] | relative cell number [14] | relative cell number [15] | relative cell number [16] | relative cell number [17] | relative cell number [18] | relative cell number [19] | relative cell number [20] | relative cell number (sgRNA knockout: sgXBP1, 10 nM) | relative cell number (sgRNA knockout: sgXBP1, 100 nM) | relative cell number [21] | relative cell number [22] |
| --- | --- | --- | --- | --- | --- | --- | --- | --- | --- | --- | --- | --- | --- | --- | --- | --- | --- | --- | --- | --- | --- | --- | --- | --- | --- | --- | --- | --- | --- | --- | --- | --- | --- | --- | --- | --- |
| Cc1ccc(F)c(NC(=O)Nc2ccc(-c3cccc4[nH]nc(N)c34)cc2)c1 [Linifanib] | 96 ± 11 | 102 ± 15 | 106 ± 18 | 27.5 ± 14 | 95.1 ± 39 | 133 ± 9.5 | 98.4 ± 5.9 | 44.3 ± 12 | 100 ± 26 | 143 ± 5.1 | 106 ± 38 | 35.9 ± 2.4 | 91.8 ± 26 | 130.9 ± 0.16 | 114 ± 92 | 30.2 ± 5.8 | 105 ± 6.4 | 115 ± 12 | 103 ± 17 | 38.5 ± 6.3 | 104 ± 19 | 105 ± 7.3 | 128 ± 1.4 | 32.1 ± 1.1 | 88.7 ± 26 | 106 ± 2 | 83.4 ± 41 | 25.3 ± 0.89 | 89.3 ± 23 | 107 ± 18 | 122 ± 59 | 26.4 ± 16 | 115 ± 26 | 98.8 ± 4.1 | 89.1 ± 24 | 32.2 ± 7.3 |
| CC(=O)Nc1cccc(-n2c(=O)n(C3CC3)c(=O)c3c(Nc4ccc(I)cc4F)n(C)c(=O)c(C)c32)c1 [Trametinib] | 108 ± 27 | 87.6 ± 20 | 94 ± 3 | 53.4 ± 18 | 99.1 ± 36 | 71.7 ± 1.3 | 69.2 ± 44 | 51.6 ± 10 | 74.6 ± 49 | 65.1 ± 54 | 64.4 ± 20 | 48.6 ± 4.5 | 112 ± 40 | 70.1 ± 15 | 59.1 ± 5.5 | 42.9 ± 0.57 | 92.4 ± 16 | 64.5 ± 5.1 | 68 ± 18 | 55.6 ± 13 | 89.5 ± 22 | 76.3 ± 9.9 | 76.8 ± 22 | 57.3 ± 3.2 | 105 ± 13 | 76 ± 10 | 55.3 ± 7.4 | 43.3 ± 0.2 | 93.1 ± 31 | 89.3 ± 27 | 74.1 ± 52 | 35.7 ± 12 | 98 ± 2.2 | 81.6 ± 8.4 | 57.3 ± 12 | 41.7 ± 3.1 |

Reference: the supplement of paper PMC7661543
